{"source": "the supplement of paper PMC10735217", "tested_on": "HEK293A TEAD-LUC reporter", "experiment": "TEAD-luciferase reporter activity (YAP activation), robust Z score vs plate; higher = stronger YAP/TEAD activation", "settings": "24 h", "note": "Counter-ions that a name gives are not always drawn. The list shows a part of the results. Repeats in this data set agree poorly, so a single value says little.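 Human kidney-derived cells stably carry a construct in which eight TEAD-binding elements drive luciferase, measured by luminescence in a drug-repurposing library screen. A hit is any compound whose signal exceeds the plate mean by more than five robust Z scores.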", "data": [{"smiles": "O=S(=O)(O)CS(=O)(=O)O", "values": [{"measurement": "TEAD-luciferase reporter activity", "setting": "compound concentration: 200 nM", "value": "inactive: -0.0589"}, {"measurement": "TEAD-luciferase reporter activity", "setting": "compound concentration: 2 uM", "value": "inactive: -1.52"}, {"measurement": "TEAD-luciferase reporter activity", "setting": "compound concentration: 10 uM", "value": "inactive: 0.0595"}]}, {"smiles": "CCCCCCCCCCC[C@@H](C[C@@H]1OC(=O)[C@H]1CCCCCC)OC(=O)[C@H](CC(C)C)NC=O", "note": "[Orlistat]", "values": [{"measurement": "TEAD-luciferase reporter activity", "setting": "compound concentration: 2 uM", "value": "inactive: -0.693"}]}, {"smiles": "CCCCCCCCCCC[C@@H](C[C@@H]1OC(=O)[C@H]1CCCCCC)OC(=O)[C@H](CC(C)C)NC=O", "values": [{"measurement": "TEAD-luciferase reporter activity", "setting": "compound concentration: 200 nM", "value": "inactive: -0.977"}, {"measurement": "TEAD-luciferase reporter activity", "setting": "compound concentration: 10 uM", "value": "inactive: -0.665"}]}, {"smiles": "O=C(C(=O)N1CCN(C(=O)c2ccccc2)CC1)c1c[nH]c2c(-c3ncon3)ccc(F)c12", "note": "[analog of Temsavir]", "values": [{"measurement": "TEAD-luciferase reporter activity", "setting": "compound concentration: 200 nM", "value": "inactive: -1.86"}, {"measurement": "TEAD-luciferase reporter activity", "setting": "compound concentration: 2 uM", "value": "inactive: -1.48"}, {"measurement": "TEAD-luciferase reporter activity", "setting": "compound concentration: 10 uM", "value": "inactive: -2.2"}]}, {"smiles": "COC(=O)C1=C(C)NC(C)=C(C(=O)OC)C1C1=COCCO1", "values": [{"measurement": "TEAD-luciferase reporter activity", "setting": "compound concentration: 200 nM", "value": "inactive: -0.325"}, {"measurement": "TEAD-luciferase reporter activity", "setting": "compound concentration: 2 uM", "value": "inactive: 0.054"}, {"measurement": "TEAD-luciferase reporter activity", "setting": "compound concentration: 10 uM", "value": "inactive: 1.63"}]}, {"smiles": "CCOc1ccc(-c2ccc(Cn3c(CC(C)(C)C(=O)O)c(SC(C)(C)C)c4cc(OCc5ccc(C)cn5)ccc43)cc2)cn1", "note": "[fiboflapon]", "values": [{"measurement": "TEAD-luciferase reporter activity", "setting": "compound concentration: 200 nM", "value": "inactive: -0.718"}, {"measurement": "TEAD-luciferase reporter activity", "setting": "compound concentration: 2 uM", "value": "inactive: -0.146"}, {"measurement": "TEAD-luciferase reporter activity", "setting": "compound concentration: 10 uM", "value": "inactive: -0.379"}]}, {"smiles": "COc1ccc(Cl)c(Nc2nc3ccccc3nc2NS(=O)(=O)c2cccc(NC(=O)C(C)(C)N)c2)c1", "note": "[Pilaralisib]", "values": [{"measurement": "TEAD-luciferase reporter activity", "setting": "compound concentration: 2 uM", "value": "inactive: -1.41"}]}, {"smiles": "COc1ccc(Cl)c(Nc2nc3ccccc3nc2NS(=O)(=O)c2cccc(NC(=O)C(C)(C)N)c2)c1", "values": [{"measurement": "TEAD-luciferase reporter activity", "setting": "compound concentration: 200 nM", "value": "inactive: -0.273"}, {"measurement": "TEAD-luciferase reporter activity", "setting": "compound concentration: 10 uM", "value": "inactive: -0.0641"}]}, {"smiles": "CCn1nc(C(=O)O)c(=O)c2cc3c(cc21)OCO3", "note": "[cinoxacin]", "values": [{"measurement": "TEAD-luciferase reporter activity", "setting": "compound concentration: 200 nM", "value": "inactive: -0.465"}, {"measurement": "TEAD-luciferase reporter activity", "setting": "compound concentration: 2 uM", "value": "inactive: -1.55"}, {"measurement": "TEAD-luciferase reporter activity", "setting": "compound concentration: 10 uM", "value": "inactive: 0.119"}]}, {"smiles": "CC(CN(C)C)CN1c2ccccc2CCc2ccccc21", "note": "(configuration not stated) [Trimipramine maleate]", "values": [{"measurement": "TEAD-luciferase reporter activity", "setting": "compound concentration: 200 nM", "value": "inactive: 0.387"}, {"measurement": "TEAD-luciferase reporter activity", "setting": "compound concentration: 2 uM", "value": "inactive: 1.92"}, {"measurement": "TEAD-luciferase reporter activity", "setting": "compound concentration: 10 uM", "value": "inactive: 1.48"}]}, {"smiles": "Cn1nnnc1C(/C=C/[C@@H]1C[C@@H](O)CC(=O)O1)=C(c1ccc(F)cc1)c1ccc(F)cc1", "values": [{"measurement": "TEAD-luciferase reporter activity", "setting": "compound concentration: 200 nM", "value": "inactive: 2.33"}, {"measurement": "TEAD-luciferase reporter activity", "setting": "compound concentration: 2 uM", "value": "inactive: -0.663"}, {"measurement": "TEAD-luciferase reporter activity", "setting": "compound concentration: 10 uM", "value": "inactive: 4.52"}]}, {"smiles": "O=C(O)Cn1nnc(-c2cc(N3CCC(Oc4cc(F)ccc4Br)CC3)no2)n1", "values": [{"measurement": "TEAD-luciferase reporter activity", "setting": "compound concentration: 200 nM", "value": "inactive: -1.17"}, {"measurement": "TEAD-luciferase reporter activity", "setting": "compound concentration: 2 uM", "value": "inactive: -0.743"}, {"measurement": "TEAD-luciferase reporter activity", "setting": "compound concentration: 10 uM", "value": "inactive: -1.68"}]}, {"smiles": "Oc1ccc(Cc2nccc3cc(O)c(O)cc23)cc1O", "note": "[Papaveroline]", "values": [{"measurement": "TEAD-luciferase reporter activity", "setting": "compound concentration: 200 nM", "value": "inactive: -1.43"}, {"measurement": "TEAD-luciferase reporter activity", "setting": "compound concentration: 2 uM", "value": "inactive: -1.48"}, {"measurement": "TEAD-luciferase reporter activity", "setting": "compound concentration: 10 uM", "value": "inactive: -1.27"}]}, {"smiles": "Cc1ncoc1-c1nnc(SCCCN2CC3CC3(c3ccc(C(F)(F)F)cc3F)C2)n1C", "note": "(configuration not stated)", "values": [{"measurement": "TEAD-luciferase reporter activity", "setting": "compound concentration: 200 nM", "value": "inactive: -0.45"}, {"measurement": "TEAD-luciferase reporter activity", "setting": "compound concentration: 2 uM", "value": "inactive: -1.04"}, {"measurement": "TEAD-luciferase reporter activity", "setting": "compound concentration: 10 uM", "value": "inactive: -0.822"}]}, {"smiles": "CC(CCc1ccccc1)NCC(O)c1ccc(O)c(C(N)=O)c1", "note": "(configuration not stated) [labetalol]", "values": [{"measurement": "TEAD-luciferase reporter activity", "setting": "compound concentration: 2 uM", "value": "inactive: 1.58"}]}, {"smiles": "CC(CCc1ccccc1)NCC(O)c1ccc(O)c(C(N)=O)c1", "note": "(configuration not stated) [Labetalol]", "values": [{"measurement": "TEAD-luciferase reporter activity", "setting": "compound concentration: 200 nM", "value": "inactive: 0.879"}, {"measurement": "TEAD-luciferase reporter activity", "setting": "compound concentration: 10 uM", "value": "inactive: -1.92"}]}, {"smiles": "Cc1ccsc1/C=C/C1=NCCCN1C", "values": [{"measurement": "TEAD-luciferase reporter activity", "setting": "compound concentration: 200 nM", "value": "inactive: -0.625"}, {"measurement": "TEAD-luciferase reporter activity", "setting": "compound concentration: 10 uM", "value": "inactive: 1.55"}]}, {"smiles": "Cc1ccsc1/C=C/C1=NCCCN1C", "note": "[Morantel Citrate]", "values": [{"measurement": "TEAD-luciferase reporter activity", "setting": "compound concentration: 2 uM", "value": "inactive: -1.26"}]}, {"smiles": "CC(C(O)c1ccccc1)N(C)CC=C1c2ccccc2CCc2ccccc21", "note": "(configuration not stated)", "values": [{"measurement": "TEAD-luciferase reporter activity", "setting": "compound concentration: 200 nM", "value": "inactive: 1.08"}, {"measurement": "TEAD-luciferase reporter activity", "setting": "compound concentration: 2 uM", "value": "inactive: -0.794"}, {"measurement": "TEAD-luciferase reporter activity", "setting": "compound concentration: 10 uM", "value": "inactive: 0.0469"}]}, {"smiles": "Cc1ccc(Cn2nc(CCCc3ccc(OC(C)(C)C(=O)O)cc3)[nH]c2=O)cc1", "values": [{"measurement": "TEAD-luciferase reporter activity", "setting": "compound concentration: 200 nM", "value": "inactive: -0.64"}, {"measurement": "TEAD-luciferase reporter activity", "setting": "compound concentration: 2 uM", "value": "inactive: -0.294"}, {"measurement": "TEAD-luciferase reporter activity", "setting": "compound concentration: 10 uM", "value": "inactive: -0.265"}]}, {"smiles": "COc1cc(NS(C)(=O)=O)ccc1Nc1c2ccccc2nc2ccccc12", "note": "[amsacrine, Bristol-Myers]", "values": [{"measurement": "TEAD-luciferase reporter activity", "setting": "compound concentration: 200 nM", "value": "inactive: -1.53"}, {"measurement": "TEAD-luciferase reporter activity", "setting": "compound concentration: 2 uM", "value": "inactive: 2.94"}, {"measurement": "TEAD-luciferase reporter activity", "setting": "compound concentration: 10 uM", "value": "inactive: -0.51"}]}, {"smiles": "CCCCCCCCCCCCCCOC(=O)c1cccnc1", "note": "[Myristyl nicotinate]", "values": [{"measurement": "TEAD-luciferase reporter activity", "setting": "compound concentration: 200 nM", "value": "inactive: -0.825"}, {"measurement": "TEAD-luciferase reporter activity", "setting": "compound concentration: 2 uM", "value": "inactive: -2.13"}, {"measurement": "TEAD-luciferase reporter activity", "setting": "compound concentration: 10 uM", "value": "inactive: 2.2"}]}, {"smiles": "C#CCOc1ccc(Nc2nc(Nc3ccc(C)c(S(=O)(=O)NC(=O)CC)c3)ncc2F)cc1", "values": [{"measurement": "TEAD-luciferase reporter activity", "setting": "compound concentration: 200 nM", "value": "inactive: 2.57"}, {"measurement": "TEAD-luciferase reporter activity", "setting": "compound concentration: 2 uM", "value": "inactive: -0.529"}, {"measurement": "TEAD-luciferase reporter activity", "setting": "compound concentration: 10 uM", "value": "inactive: 0.964"}]}, {"smiles": "CC(CCc1ccccc1)NCC#N", "note": "(configuration not stated)", "values": [{"measurement": "TEAD-luciferase reporter activity", "setting": "compound concentration: 200 nM", "value": "inactive: -1.21"}, {"measurement": "TEAD-luciferase reporter activity", "setting": "compound concentration: 2 uM", "value": "inactive: 2.31"}, {"measurement": "TEAD-luciferase reporter activity", "setting": "compound concentration: 10 uM", "value": "inactive: -1.5"}]}, {"smiles": "COc1nc(N)c2ncn(C3CCCCC3)c2n1", "values": [{"measurement": "TEAD-luciferase reporter activity", "setting": "compound concentration: 200 nM", "value": "inactive: 4.04"}, {"measurement": "TEAD-luciferase reporter activity", "setting": "compound concentration: 2 uM", "value": "inactive: -0.87"}, {"measurement": "TEAD-luciferase reporter activity", "setting": "compound concentration: 10 uM", "value": "inactive: -1.18"}]}, {"smiles": "CC1(C)OC(=O)C(c2cccc(F)c2)=C1c1ccc(S(C)(=O)=O)cc1", "values": [{"measurement": "TEAD-luciferase reporter activity", "setting": "compound concentration: 200 nM", "value": "inactive: 0.155"}, {"measurement": "TEAD-luciferase reporter activity", "setting": "compound concentration: 2 uM", "value": "inactive: -0.0695"}, {"measurement": "TEAD-luciferase reporter activity", "setting": "compound concentration: 10 uM", "value": "inactive: -0.228"}]}, {"smiles": "C(=C1/CCCCC1N1CCC1)/c1ccccc1", "note": "(configuration not stated)", "values": [{"measurement": "TEAD-luciferase reporter activity", "setting": "compound concentration: 200 nM", "value": "inactive: 1.63"}, {"measurement": "TEAD-luciferase reporter activity", "setting": "compound concentration: 2 uM", "value": "inactive: 0.0679"}, {"measurement": "TEAD-luciferase reporter activity", "setting": "compound concentration: 10 uM", "value": "inactive: 2.41"}]}, {"smiles": "COC(=O)N[C@H](C(=O)N1[C@H](c2nc3cc(-c4cc5ccc4CCc4ccc(c(-c6ccc7[nH]c([C@@H]8C[C@@H]9CCCC[C@@H]9N8C(=O)[C@@H](NC(=O)OC)C(C)C)nc7c6)c4)CC5)ccc3[nH]2)C[C@@H]2CCCC[C@@H]21)C(C)C", "note": "[Odalasvir]", "values": [{"measurement": "TEAD-luciferase reporter activity", "setting": "compound concentration: 200 nM", "value": "inactive: 0.0589"}, {"measurement": "TEAD-luciferase reporter activity", "setting": "compound concentration: 2 uM", "value": "inactive: -0.703"}, {"measurement": "TEAD-luciferase reporter activity", "setting": "compound concentration: 10 uM", "value": "inactive: 0.88"}]}]}
